Data taken from article PMC2806001.

Protein sequences, listed by entry. Tags and fused reporters are not part of them. Residues count along the entry.
UniProt Q9NXA8, residues 37-310: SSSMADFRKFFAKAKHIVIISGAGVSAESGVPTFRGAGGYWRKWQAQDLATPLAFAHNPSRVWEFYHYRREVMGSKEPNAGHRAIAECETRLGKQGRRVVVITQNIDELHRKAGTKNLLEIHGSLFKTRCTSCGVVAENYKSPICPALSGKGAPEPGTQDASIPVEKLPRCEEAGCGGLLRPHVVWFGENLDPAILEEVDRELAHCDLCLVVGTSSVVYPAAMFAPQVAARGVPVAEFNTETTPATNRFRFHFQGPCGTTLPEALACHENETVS

How the values were obtained:
[1] = biological target: Sirtuin 5 (Sirt5) (UniProt Q9NXA8); assay: affinity purification with mass spectrometry; His-tagged bait (p66CH2CB as a mixture of dimeric and tetrameric state, or the Sirt5 control) saturating Talon resin; 3 mg mitochondrial lysate, 10 mM imidazole, 1 h at room temperature; eluate digested with trypsin and analysed by MudPIT; only the target purified
[2] = biological target: T1, p66CH2CB WT (N-terminal domains CH2 and CB of p66Shc, residues 1-150) (UniProt P29353); assay: as above
T1 sequence: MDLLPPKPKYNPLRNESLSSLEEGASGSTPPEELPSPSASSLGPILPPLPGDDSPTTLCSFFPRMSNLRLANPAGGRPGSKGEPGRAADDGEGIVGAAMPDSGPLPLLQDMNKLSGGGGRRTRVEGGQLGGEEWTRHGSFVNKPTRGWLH

binding [1]: no binding
B1: Prx3, endogenous in mitochondrial lysate (protein, UniProt Q9Z0V6 63-257)
chain: TPAVTQHAPHFKGTAVVNGEFKELSLDDFKGKYLVLFFYPLDFTFVCPTEIVAFSDKANEFHDVNCEVVAVSVDSHFSHLAWINTPRKNGGLGHMNITLLSDLTKQISRDYGVLLESAGIALRGLFIIDPNGVIKHLSVNDLPVGRSVEEPLRLVKAFQFVETHGEVCPANWTPESPTIKPSPTASKEYFEKVHQ

binding [1]: no binding
binding [2]: no binding
B2: catalase, endogenous in mitochondrial lysate (protein, UniProt P04762 1-527)
chain: MADSRDPASDQMKQWKEQRAPQKPDVLTTGGGNPIGDKLNIMTAGPRGPLLVQDVVFTDEMAHFDRERIPERVVHAKGAGAFGYFEVTHDITRYSKAKVFEHIGKRTPIAVRFSTVAGESGSADTVRDPRGFAVKFYTEDGNWDLVGNNTPIFFIRDAMLFPSFIHSQKRNPQTHLKDPDMVWDFWSLCPESLHQVTFLFSDRGIPDGHRHMNGYGSHTFKLVNANGEAVYCKFHYKTDQGIKNLPVEEAGRLAQEDPDYGLRDLFNAIASGNYPSWTFYIQVMTFKEAETFPFNPFDLTKVWPHKDYPLIPVGKLVLNRNPANYFAEVEQMAFDPSNMPPGIEPSPDKMLQGRLFAYPDTHRHRLGPNYLQIPVNCPYRARVANYQRDGPMCMHDNQGGAPNYYPNSFSAPEQQGSALEHHSQCSADVKRFNSANEDNVTQVRTFYTKVLNEEERKRLCENIANHLKDAQLFIQRKAVKNFTDVHPDYGARVQALLDQYNSQKPKNAIHTYVQAGSHIAAKGKANL

binding [1]: no binding
B3: Peroxiredoxin 1 (Prx1), endogenous in mitochondrial lysate (protein, UniProt Q63716 1-199)
chain: MSSGNAKIGHPAPSFKATAVMPDGQFKDISLSDYKGKYVVFFFYPLDFTFVCPTEIIAFSDRAEEFKKLNCQVIGASVDSHFCHLAWINTPKKQGGLGPMNIPLVSDPKRTIAQDYGVLKADEGISFRGLFIIDDKGILRQITINDLPVGRSVDEILRLVQAFQFTDKHGEVCPAGWKPGSDTIKPDVNKSKEYFSKQK

These are yes or no findings as the source states them, for the method shown. In cells and extracts the contact can be indirect. These calls come from enrichment with a bait or labelling near it, and not all partners need be listed. A no says only that the protein was not detected with the bait. Each block holds one binder with its values, some of them ahead of it.
